Assay results from patent publication US20130171170A1.
Results are given in words; binding and its absence hold for the method and conditions named. Some binding calls cover weakened binding; strength is not graded here.

Protein sequences, listed by entry. Tags and fused reporters are not part of them. Lines headed by an entry give the natural chain unless they say otherwise; changes in a name come on top.
UniProt P20273: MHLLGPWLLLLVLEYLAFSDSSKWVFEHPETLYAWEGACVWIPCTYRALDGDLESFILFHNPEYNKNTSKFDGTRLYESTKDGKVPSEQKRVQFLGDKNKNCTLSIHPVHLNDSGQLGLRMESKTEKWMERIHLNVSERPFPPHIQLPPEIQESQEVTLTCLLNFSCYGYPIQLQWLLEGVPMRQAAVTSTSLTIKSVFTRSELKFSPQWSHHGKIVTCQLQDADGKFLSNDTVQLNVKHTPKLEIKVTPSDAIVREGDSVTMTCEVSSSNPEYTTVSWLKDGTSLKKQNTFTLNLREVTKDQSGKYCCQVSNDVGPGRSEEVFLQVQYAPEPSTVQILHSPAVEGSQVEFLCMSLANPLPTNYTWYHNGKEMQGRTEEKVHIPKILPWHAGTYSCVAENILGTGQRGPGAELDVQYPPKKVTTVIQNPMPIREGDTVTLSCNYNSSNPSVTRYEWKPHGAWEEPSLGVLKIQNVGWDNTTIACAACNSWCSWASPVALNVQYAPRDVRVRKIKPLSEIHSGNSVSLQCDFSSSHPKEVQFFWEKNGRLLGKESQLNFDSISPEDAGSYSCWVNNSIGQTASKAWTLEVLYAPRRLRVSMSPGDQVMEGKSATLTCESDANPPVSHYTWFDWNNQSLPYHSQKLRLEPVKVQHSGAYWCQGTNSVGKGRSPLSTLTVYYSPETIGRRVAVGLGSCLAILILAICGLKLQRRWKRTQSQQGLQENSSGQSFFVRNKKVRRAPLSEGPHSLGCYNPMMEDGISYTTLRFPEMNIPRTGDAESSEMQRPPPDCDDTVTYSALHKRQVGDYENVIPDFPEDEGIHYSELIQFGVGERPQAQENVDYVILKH

Target: human CD22 (form in the assay not stated) (human) (UniProt P20273)
Assay: cell-based (FACS) and plate (ELISA) screening assays

B1: murine anti-human CD22 10F4.4.1 monoclonal antibody (antibody, V domains shown)
VH: QVQLQQSGPELVKPGASVKISCKASGYEFSRSWMNWVKQRPGQGREWIGRIYPGDGDTNYSGKFKGKATLTADKSSSTAYMQLSSLTSVDSAVYFCARDGSSWDWYFDVWGAGTTVTVSS
VL: DILMTQTPLSLPVSLGDQASISCRSSQSIVHSNGNTFLEWYLQKPGQSPKLLIYKVSNRFSGVPDRFSGSGSGTDFTLKISRVEAEDLGVYYCFQGSQFPYTFGGGTKVEIK
binding: binds
